From the supplement of paper PMC10849652
Some of the results follow.

Sequences of proteins named here, by UniProt entry; tags and fusion partners are left off. A change or cut given only in a name is not applied to a line headed by its entry.
UniProt Q96G01: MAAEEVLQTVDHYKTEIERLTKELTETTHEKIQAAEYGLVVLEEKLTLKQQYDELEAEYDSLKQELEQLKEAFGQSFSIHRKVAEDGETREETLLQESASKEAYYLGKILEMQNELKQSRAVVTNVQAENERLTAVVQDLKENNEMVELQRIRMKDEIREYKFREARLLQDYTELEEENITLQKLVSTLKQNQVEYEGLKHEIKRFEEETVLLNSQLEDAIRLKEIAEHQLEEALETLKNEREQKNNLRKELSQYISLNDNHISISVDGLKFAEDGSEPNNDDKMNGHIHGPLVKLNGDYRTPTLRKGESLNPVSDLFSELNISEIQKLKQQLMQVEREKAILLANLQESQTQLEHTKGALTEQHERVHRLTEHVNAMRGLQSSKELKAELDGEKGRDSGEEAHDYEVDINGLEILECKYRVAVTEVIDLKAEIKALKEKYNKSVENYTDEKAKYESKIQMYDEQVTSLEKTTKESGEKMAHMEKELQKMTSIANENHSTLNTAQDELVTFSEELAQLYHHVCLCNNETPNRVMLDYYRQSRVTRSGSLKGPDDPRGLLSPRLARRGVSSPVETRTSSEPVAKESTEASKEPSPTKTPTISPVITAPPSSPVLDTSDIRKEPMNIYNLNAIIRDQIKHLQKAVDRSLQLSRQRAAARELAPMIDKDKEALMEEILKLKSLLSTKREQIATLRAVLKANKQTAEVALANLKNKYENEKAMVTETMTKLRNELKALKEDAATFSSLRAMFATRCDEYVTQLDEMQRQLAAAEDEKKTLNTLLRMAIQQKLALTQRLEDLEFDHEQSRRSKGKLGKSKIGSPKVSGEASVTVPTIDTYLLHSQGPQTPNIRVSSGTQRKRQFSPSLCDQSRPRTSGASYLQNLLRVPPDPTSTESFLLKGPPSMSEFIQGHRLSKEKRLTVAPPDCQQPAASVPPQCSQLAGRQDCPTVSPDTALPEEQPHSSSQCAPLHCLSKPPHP
UniProt Q12981: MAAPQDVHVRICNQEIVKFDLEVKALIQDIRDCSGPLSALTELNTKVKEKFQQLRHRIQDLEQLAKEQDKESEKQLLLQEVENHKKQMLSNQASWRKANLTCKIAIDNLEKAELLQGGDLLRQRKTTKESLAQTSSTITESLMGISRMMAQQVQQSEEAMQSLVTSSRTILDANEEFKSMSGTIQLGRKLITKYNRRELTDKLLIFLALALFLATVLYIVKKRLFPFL
UniProt Q9NUP1: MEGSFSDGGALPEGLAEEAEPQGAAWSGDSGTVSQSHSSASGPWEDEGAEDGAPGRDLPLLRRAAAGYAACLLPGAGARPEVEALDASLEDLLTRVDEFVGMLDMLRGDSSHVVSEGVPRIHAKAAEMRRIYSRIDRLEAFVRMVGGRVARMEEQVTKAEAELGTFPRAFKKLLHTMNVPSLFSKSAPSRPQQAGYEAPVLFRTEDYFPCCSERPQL
UniProt Q8WXE1: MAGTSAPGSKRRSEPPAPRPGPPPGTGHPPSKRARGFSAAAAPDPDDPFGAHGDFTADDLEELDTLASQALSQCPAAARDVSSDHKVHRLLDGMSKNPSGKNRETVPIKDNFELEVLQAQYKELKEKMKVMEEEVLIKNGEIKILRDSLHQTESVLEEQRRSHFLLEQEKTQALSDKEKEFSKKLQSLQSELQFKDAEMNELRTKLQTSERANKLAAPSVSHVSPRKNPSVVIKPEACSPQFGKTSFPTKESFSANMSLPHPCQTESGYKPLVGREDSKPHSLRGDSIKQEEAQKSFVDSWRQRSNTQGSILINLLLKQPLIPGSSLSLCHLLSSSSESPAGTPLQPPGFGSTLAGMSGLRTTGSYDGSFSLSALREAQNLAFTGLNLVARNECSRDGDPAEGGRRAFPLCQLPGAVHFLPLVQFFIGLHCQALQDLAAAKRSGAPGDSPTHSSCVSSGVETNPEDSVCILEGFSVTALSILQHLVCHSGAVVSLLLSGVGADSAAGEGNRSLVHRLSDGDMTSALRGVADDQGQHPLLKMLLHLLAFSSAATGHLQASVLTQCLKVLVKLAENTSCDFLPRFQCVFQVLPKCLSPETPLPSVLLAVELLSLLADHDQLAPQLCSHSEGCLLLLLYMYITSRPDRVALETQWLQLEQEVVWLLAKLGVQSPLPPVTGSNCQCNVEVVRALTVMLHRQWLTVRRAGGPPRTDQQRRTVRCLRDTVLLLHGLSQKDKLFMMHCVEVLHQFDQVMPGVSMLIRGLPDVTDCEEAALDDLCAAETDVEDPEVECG
UniProt Q07817, whole entry, looked up: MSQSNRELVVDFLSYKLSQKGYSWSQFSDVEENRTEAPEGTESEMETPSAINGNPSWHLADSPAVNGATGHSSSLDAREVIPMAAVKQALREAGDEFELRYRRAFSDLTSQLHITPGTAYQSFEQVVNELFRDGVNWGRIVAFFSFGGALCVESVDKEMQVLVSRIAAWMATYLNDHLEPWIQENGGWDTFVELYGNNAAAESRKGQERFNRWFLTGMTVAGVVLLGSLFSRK
UniProt Q6Y288: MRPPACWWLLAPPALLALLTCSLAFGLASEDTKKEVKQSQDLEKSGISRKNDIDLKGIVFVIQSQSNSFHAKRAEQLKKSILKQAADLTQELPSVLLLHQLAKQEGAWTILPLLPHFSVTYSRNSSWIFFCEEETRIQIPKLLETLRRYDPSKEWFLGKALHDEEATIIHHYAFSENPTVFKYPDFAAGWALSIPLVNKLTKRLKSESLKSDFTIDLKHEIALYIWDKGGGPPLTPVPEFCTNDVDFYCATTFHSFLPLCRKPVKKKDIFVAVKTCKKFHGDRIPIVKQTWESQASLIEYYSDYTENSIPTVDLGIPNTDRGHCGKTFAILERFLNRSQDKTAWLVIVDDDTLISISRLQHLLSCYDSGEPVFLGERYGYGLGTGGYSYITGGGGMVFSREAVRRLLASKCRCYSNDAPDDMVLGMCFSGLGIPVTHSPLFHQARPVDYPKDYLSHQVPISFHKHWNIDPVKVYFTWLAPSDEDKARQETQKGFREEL
UniProt Q9UHR4: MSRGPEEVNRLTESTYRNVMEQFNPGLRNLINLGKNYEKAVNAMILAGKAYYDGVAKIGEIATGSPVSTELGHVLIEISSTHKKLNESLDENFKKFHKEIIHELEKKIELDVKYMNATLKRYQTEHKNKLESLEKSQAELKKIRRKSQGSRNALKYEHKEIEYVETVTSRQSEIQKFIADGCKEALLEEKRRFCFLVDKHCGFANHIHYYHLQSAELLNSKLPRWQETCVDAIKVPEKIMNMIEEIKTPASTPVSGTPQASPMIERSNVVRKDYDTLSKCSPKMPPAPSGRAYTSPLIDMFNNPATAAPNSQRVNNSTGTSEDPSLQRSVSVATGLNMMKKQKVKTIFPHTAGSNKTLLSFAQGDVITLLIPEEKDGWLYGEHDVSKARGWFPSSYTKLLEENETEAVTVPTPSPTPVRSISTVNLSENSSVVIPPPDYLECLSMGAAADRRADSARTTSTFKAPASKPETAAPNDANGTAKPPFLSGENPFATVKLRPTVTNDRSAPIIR
UniProt Q9BXK5, whole entry, looked up: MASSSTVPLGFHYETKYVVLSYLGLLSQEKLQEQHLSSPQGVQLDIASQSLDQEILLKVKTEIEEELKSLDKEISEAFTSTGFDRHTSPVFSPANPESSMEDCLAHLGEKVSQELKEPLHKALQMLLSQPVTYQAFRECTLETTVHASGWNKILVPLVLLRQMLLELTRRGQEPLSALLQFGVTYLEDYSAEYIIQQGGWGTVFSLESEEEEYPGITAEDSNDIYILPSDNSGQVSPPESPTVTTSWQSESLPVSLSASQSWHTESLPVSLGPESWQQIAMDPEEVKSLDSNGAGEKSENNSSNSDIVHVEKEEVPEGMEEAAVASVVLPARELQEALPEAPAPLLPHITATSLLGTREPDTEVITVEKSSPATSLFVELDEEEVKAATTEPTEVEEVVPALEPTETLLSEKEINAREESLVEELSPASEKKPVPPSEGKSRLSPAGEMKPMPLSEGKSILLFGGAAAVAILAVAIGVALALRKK
UniProt O95816: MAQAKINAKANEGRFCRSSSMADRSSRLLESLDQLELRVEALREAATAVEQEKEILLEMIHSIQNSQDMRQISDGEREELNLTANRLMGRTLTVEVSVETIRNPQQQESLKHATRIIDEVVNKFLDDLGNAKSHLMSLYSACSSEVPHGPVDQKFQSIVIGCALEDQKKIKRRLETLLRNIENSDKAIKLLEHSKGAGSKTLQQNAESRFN
UniProt Q9H3K6: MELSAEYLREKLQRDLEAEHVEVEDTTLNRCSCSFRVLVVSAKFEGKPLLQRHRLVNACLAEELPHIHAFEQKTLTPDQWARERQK
UniProt P25311: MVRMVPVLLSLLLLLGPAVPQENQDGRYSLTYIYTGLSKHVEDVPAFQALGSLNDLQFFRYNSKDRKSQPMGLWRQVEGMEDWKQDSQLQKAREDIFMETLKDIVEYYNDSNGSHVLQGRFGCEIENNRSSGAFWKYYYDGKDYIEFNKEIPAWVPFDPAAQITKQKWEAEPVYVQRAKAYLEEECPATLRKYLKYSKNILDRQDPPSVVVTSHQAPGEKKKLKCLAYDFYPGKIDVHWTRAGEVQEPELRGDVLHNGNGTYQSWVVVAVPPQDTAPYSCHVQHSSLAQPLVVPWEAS
UniProt P12694: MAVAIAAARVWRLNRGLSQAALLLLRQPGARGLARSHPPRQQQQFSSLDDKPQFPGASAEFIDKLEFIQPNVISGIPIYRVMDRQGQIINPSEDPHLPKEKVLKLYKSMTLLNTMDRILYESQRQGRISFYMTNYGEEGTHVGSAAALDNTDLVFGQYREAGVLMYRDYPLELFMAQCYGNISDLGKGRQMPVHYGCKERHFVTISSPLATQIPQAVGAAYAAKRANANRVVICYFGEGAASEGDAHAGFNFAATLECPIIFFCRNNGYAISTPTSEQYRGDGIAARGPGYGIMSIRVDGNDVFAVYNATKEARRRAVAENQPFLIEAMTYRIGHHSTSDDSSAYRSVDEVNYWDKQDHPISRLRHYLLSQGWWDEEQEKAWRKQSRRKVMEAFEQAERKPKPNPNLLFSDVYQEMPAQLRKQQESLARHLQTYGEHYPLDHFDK
UniProt Q8WWM7: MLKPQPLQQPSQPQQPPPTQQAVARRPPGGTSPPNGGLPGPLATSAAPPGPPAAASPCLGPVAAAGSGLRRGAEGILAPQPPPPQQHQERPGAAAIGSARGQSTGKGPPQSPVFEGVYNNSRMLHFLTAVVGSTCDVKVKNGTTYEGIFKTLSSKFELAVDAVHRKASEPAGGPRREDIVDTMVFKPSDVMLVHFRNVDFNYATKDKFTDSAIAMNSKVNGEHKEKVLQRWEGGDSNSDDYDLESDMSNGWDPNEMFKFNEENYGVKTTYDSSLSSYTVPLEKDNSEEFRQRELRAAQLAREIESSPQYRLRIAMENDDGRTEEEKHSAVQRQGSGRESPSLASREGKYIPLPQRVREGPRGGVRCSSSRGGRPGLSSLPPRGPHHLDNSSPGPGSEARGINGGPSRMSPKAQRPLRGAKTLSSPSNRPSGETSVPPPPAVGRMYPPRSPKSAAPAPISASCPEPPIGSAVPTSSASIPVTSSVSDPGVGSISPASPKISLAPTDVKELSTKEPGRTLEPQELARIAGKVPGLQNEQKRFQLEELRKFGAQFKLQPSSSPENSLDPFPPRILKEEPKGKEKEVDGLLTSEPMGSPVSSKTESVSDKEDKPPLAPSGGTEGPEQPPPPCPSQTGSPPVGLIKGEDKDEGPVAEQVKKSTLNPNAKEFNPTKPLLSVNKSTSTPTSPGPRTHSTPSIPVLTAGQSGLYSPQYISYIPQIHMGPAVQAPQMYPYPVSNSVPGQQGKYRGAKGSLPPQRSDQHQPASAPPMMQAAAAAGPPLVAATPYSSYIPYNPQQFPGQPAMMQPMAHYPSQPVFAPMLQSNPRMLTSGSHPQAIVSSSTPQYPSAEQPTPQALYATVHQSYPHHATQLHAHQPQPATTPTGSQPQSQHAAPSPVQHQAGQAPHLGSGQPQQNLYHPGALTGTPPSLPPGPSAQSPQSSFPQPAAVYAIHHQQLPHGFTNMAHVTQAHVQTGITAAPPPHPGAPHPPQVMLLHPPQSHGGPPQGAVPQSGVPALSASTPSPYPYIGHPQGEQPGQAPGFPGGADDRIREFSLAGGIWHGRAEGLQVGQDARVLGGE
UniProt Q92843: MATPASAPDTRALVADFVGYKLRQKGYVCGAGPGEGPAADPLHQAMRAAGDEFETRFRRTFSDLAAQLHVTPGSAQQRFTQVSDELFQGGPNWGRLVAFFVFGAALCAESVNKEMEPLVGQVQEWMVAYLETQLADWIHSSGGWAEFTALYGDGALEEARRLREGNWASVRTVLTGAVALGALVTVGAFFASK

Columns and labels:
Assay in all cases: log2 fold change, soluble protein after heating vs DMSO (PISA); higher = thermal stabilisation; K562 cells, 10 uM, 30 min; active = over 0.2 and 3.5 SD of the protein, either way, in both replicates (recomputed)
[1] = compound: CC[C@@H]1C(=O)N(C)c2cnc(Nc3ccc(C(=O)NC4CCN(C)CC4)cc3OC)nc2N1C1CCCC1
How it was run: (§1)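 K562 cells (2×10^6 cells/mL) were treated with 10 μM compound for 30 min, and aliquots were heated for 3 min over 48°C-58°C. Pooled aliquots were extracted in PBS with 0.5% NP-40 at 4°C, and the supernatant after 21,000xg for 90 min was measured by TMTpro 16plex LC-MS/MS with channel sums equalised. Reported thermal stability, relative to control samples and from duplicates, is a log2 fold change.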

volasertib = compound: CC[C@@H]1C(=O)N(C)c2cnc(Nc3ccc(C(=O)N[C@H]4CC[C@H](N5CCN(CC6CC6)CC5)CC4)cc3OC)nc2N1C(C)C [volasertib]
How it was run: as §1

[2] = compound: CC[C@H](C)N1C=C(C2=C(C=C(C=C21)C3=CN=C(C=C3)N4CCNCC4)C(=O)NCC5=C(C=C(NC5=O)C)C)C
How it was run: as §1

epoxomicin = compound: CC[C@H](C)[C@@H](C(=O)N[C@@H]([C@@H](C)O)C(=O)N[C@@H](CC(C)C)C(=O)[C@]1(CO1)C)NC(=O)[C@H]([C@@H](C)CC)N(C)C(=O)C [epoxomicin]
How it was run: as §1

[3] = compound: CCn1c(C(=O)N(C2CC2)C2CC2)cc2c3c(ncn3C)c(Nc3cc(C)n(C)n3)nc21
How it was run: as §1

[4] = compound: CCn1cc(-c2ccnc3[nH]c(-c4cccc(CN(C)C)c4)cc23)c(-c2ccc(NC(=O)N(C)C)cc2)n1
How it was run: as §1

[5] = compound: CN(C)CC(=O)Nc1ccc2[nH]c(=O)c3ccccc3c2c1
How it was run: as §1

rosiglitazone = compound: CN(CCOC1=CC=C(C=C1)C[C@H]2C(=O)NC(=O)S2)C3=CC=CC=N3 (racemic) [rosiglitazone]
How it was run: as §1

[6] = compound: CN1C2=C(C3=C1C(=O)N(N=C3)CC4=CC(=CC=C4)N)SC(=C2)S(=O)C
How it was run: as §1

[7] = compound: CN1CCC(CNc2ccc3ncc(-c4cccc(OC(F)(F)F)c4)n3n2)CC1
How it was run: as §1

saracatinib = compound: CN1CCN(CCOc2cc(OC3CCOCC3)c3c(Nc4c(Cl)ccc5c4OCO5)ncnc3c2)CC1 [saracatinib]
How it was run: as §1

sotrastaurin = compound: CN1CCN(c2nc(C3=C(c4c[nH]c5ccccc45)C(=O)NC3=O)c3ccccc3n2)CC1 [sotrastaurin]
How it was run: as §1

alvocidib = compound: CN1CC[C@H](c2c(O)cc(O)c3c(=O)cc(-c4ccccc4Cl)oc23)[C@H](O)C1 [alvocidib]
How it was run: as §1

Tubastatin A = compound: CN1CCc2c(c3ccccc3n2Cc2ccc(C(=O)NO)cc2)C1 [Tubastatin A]
How it was run: as §1

[8] = compound: CNC(=O)C1=CC=CC=C1NC2=NC(=NC=C2Cl)NC3=C(C=C(C=C3)N4CCOCC4)OC
How it was run: as §1

defactinib = compound: CNC(=O)c1ccc(Nc2ncc(C(F)(F)F)c(NCc3nccnc3N(C)S(C)(=O)=O)n2)cc1 [defactinib]
How it was run: as §1

rucaparib = compound: CNCc1ccc(-c2[nH]c3cc(F)cc4c3c2CCNC4=O)cc1 [rucaparib]
How it was run: as §1

[9] = compound: CNc1nc(-c2ccc3c(N)n[nH]c3c2)cc(N2C[C@@H](C(=O)NC3CCCCC3)CC[C@H]2C)n1
How it was run: as §1

encorafenib = compound: COC(=O)N[C@@H](C)CNc1nccc(-c2cn(C(C)C)nc2-c2cc(Cl)cc(NS(C)(=O)=O)c2F)n1 [encorafenib]
How it was run: as §1

[10] = compound: COC(=O)[C@H](CCSC)NC(=O)C1=C(C=C(C=C1)NC[C@H](CS)N)C2=CC=CC=C2
How it was run: as §1

Measured: log2 fold change

BICD1 (UniProt Q96G01)
inactive: [1] -0.007 | volasertib -0.167 | [2] 0.022 | epoxomicin -0.023 | [3] 0.003 | [4] -0.044 | [5] 0.028 | rosiglitazone 0.014 | [6] -0.025 | [7] -0.098 | saracatinib -0.11 | sotrastaurin -0.045 | alvocidib -0.099 | Tubastatin A 0.05 | [8] 0.076 | defactinib -0.036 | rucaparib -0.038 | [9] -0.025 | encorafenib 0.006 | [10] 0.017

BNIP1 (UniProt Q12981)
inactive: [1] -0.021 | volasertib -0.055 | [2] 0.004 | epoxomicin -0.02 | [3] 0.006 | [4] -0.009 | [5] 0.014 | rosiglitazone 0.043 | [6] -0.036 | [7] -0.067 | saracatinib -0.006 | sotrastaurin 0.036 | alvocidib -0.063 | Tubastatin A -0.012 | [8] -0.02 | defactinib -0.026 | rucaparib -0.036 | [9] -0.026 | encorafenib -0.007 | [10] -0.011

BLOC1S4 (UniProt Q9NUP1)
inactive: [1] -0.113 | volasertib 0.015 | [2] 0.002 | epoxomicin -0.014 | [3] -0.012 | [4] 0.012 | [5] 0.043 | rosiglitazone 0.018 | [6] -0.019 | [7] -0.078 | saracatinib 0.028 | sotrastaurin 0.022 | alvocidib -0.005 | Tubastatin A 0.004 | [8] -0.099 | defactinib -0.054 | rucaparib 0.059 | [9] -0.005 | encorafenib -0.065 | [10] -0.049

ATRIP (UniProt Q8WXE1)
inactive: [1] 0.121 | volasertib -0.182 | [2] 0.003 | epoxomicin -0.215 | [3] 0.026 | [4] 0.046 | [5] -0.01 | rosiglitazone -0.001 | [6] -0.042 | [7] -0.055 | saracatinib -0.041 | sotrastaurin -0.04 | alvocidib -0.169 | Tubastatin A -0.033 | [8] -0.034 | defactinib 0.053 | rucaparib -0.096 | [9] -0.037 | encorafenib 0.006 | [10] -0.065

BCL2L1 (UniProt Q07817)
inactive: [1] 0.021 | volasertib -0.004 | [2] -0.025 | epoxomicin 0 | [3] 0.04 | [4] 0.065 | [5] 0.001 | rosiglitazone 0.018 | [6] -0.095 | [7] 0.225 | saracatinib 0.077 | sotrastaurin -0.065 | alvocidib -0.11 | Tubastatin A 0.047 | [8] -0.016 | defactinib -0.039 | rucaparib -0.135 | [9] 0.057 | encorafenib 0.144 | [10] -0.011

B3GLCT (UniProt Q6Y288)
inactive: [1] -0.038 | volasertib 0.152 | [2] -0.024 | epoxomicin 0.101 | [3] 0.027 | [4] -0.025 | [5] -0.009 | rosiglitazone 0.071 | [6] 0.007 | [7] 0.117 | saracatinib -0.013 | sotrastaurin -0.025 | alvocidib -0.002 | Tubastatin A 0.018 | [8] 0.028 | defactinib 0.024 | rucaparib 0.098 | [9] 0.033 | encorafenib -0.089 | [10] -0.018

BAIAP2L1 (UniProt Q9UHR4)
inactive: [1] 0.036 | volasertib 0.051 | [2] 0.014 | epoxomicin 0.014 | [3] 0.029 | [4] -0.009 | [5] -0.009 | rosiglitazone -0.002 | [6] -0.03 | [7] -0.002 | saracatinib 0.031 | sotrastaurin 0.022 | alvocidib -0.047 | Tubastatin A -0.006 | [8] -0.008 | defactinib -0.053 | rucaparib 0 | [9] -0.011 | encorafenib -0.009 | [10] 0.003

BCL2L13 (UniProt Q9BXK5)
inactive: [1] -0.026 | volasertib -0.229 | [2] 0.017 | epoxomicin 0.024 | [3] -0.007 | [4] -0.01 | [5] 0.006 | rosiglitazone 0.031 | [6] -0.075 | [7] -0.023 | saracatinib 0.009 | sotrastaurin -0.035 | alvocidib -0.085 | Tubastatin A -0.055 | [8] 0.015 | defactinib -0.021 | rucaparib 0.013 | [9] 0.001 | encorafenib -0.005 | [10] 0.038

BAG2 (UniProt O95816)
inactive: [1] 0.135 | volasertib 0.135 | [2] 0.012 | epoxomicin -0.172 | [3] 0.066 | [4] 0.081 | [5] -0.116 | rosiglitazone -0.028 | [6] 0.179 | [7] 0.13 | saracatinib -0.013 | sotrastaurin -0.055 | alvocidib 0.161 | Tubastatin A 0.027 | [8] -0.032 | defactinib 0.097 | rucaparib 0.359 | [9] 0.014 | encorafenib 0.077 | [10] 0.01

BAHCC1 (UniProt Q9P281)
inactive: [1] 0.238 | volasertib -0.07 | [2] -0.223 | epoxomicin -0.168 | [3] 0.024 | [4] 0.069 | [5] -0.183 | rosiglitazone 0.183 | [6] 0.06 | [7] -0.163 | saracatinib -0.191 | sotrastaurin 0.1 | alvocidib 0.114 | Tubastatin A -0.034 | [8] -0.021 | defactinib 0.005 | rucaparib -0.261 | [9] -0.168 | encorafenib 0.07 | [10] 0.014

BOLA2 (UniProt Q9H3K6)
inactive: [1] -0.094 | volasertib -0.096 | [2] 0.037 | epoxomicin 0.047 | [3] 0.029 | [4] -0.035 | [5] 0.01 | rosiglitazone 0.009 | [6] -0.073 | [7] 0.006 | saracatinib 0 | sotrastaurin -0.014 | alvocidib -0.032 | Tubastatin A 0.007 | [8] 0.074 | defactinib -0.027 | rucaparib -0.007 | [9] -0.003 | encorafenib 0.021 | [10] -0.048

BCKDK (UniProt O14874)
inactive: [1] 0.087 | volasertib 0.074 | [2] -0.032 | epoxomicin 0.002 | [3] -0.036 | [4] 0.07 | [5] -0.049 | rosiglitazone -0.188 | [6] 0.016 | [7] -0.094 | saracatinib 0.083 | sotrastaurin 0.046 | alvocidib 0.088 | Tubastatin A 0.002 | [8] -0.051 | defactinib 0.083 | rucaparib -0.031 | [9] -0.038 | encorafenib 0.048 | [10] 0.074

AZGP1 (UniProt P25311)
inactive: [1] 0.083 | volasertib 0.169 | [2] 0.292 | epoxomicin 0.914 | [3] -0.113 | [4] -0.075 | [5] 0.474 | rosiglitazone 0.458 | [6] 0.592 | [7] -0.257 | saracatinib -0.305 | sotrastaurin -0.054 | alvocidib -0.473 | Tubastatin A 0.073 | [8] -0.209 | defactinib -0.079 | rucaparib -0.068 | [9] 0.29 | encorafenib -0.101 | [10] 0.068

BCKDHA (UniProt P12694)
inactive: [1] -0.056 | volasertib -0.016 | [2] -0.025 | epoxomicin -0.119 | [3] -0.018 | [4] -0.064 | [5] 0.02 | rosiglitazone -0.01 | [6] -0.003 | [7] -0.097 | saracatinib 0.024 | sotrastaurin 0.003 | alvocidib -0.026 | Tubastatin A 0.021 | [8] -0.007 | defactinib -0.11 | rucaparib -0.009 | [9] 0.032 | encorafenib -0.086 | [10] -0.028

Pulled one by one from above (two):
BLOC1S4 (UniProt Q9NUP1)
inactive: [1] -0.113 | volasertib 0.015 | [2] 0.002 | epoxomicin -0.014 | [3] -0.012 | [4] 0.012 | [5] 0.043 | rosiglitazone 0.018 | [6] -0.019 | [7] -0.078 | saracatinib 0.028 | sotrastaurin 0.022 | alvocidib -0.005 | Tubastatin A 0.004 | [8] -0.099 | defactinib -0.054 | rucaparib 0.059 | [9] -0.005 | encorafenib -0.065 | [10] -0.049

ATRIP (UniProt Q8WXE1)
inactive: [1] 0.121 | volasertib -0.182 | [2] 0.003 | epoxomicin -0.215 | [3] 0.026 | [4] 0.046 | [5] -0.01 | rosiglitazone -0.001 | [6] -0.042 | [7] -0.055 | saracatinib -0.041 | sotrastaurin -0.04 | alvocidib -0.169 | Tubastatin A -0.033 | [8] -0.034 | defactinib 0.053 | rucaparib -0.096 | [9] -0.037 | encorafenib 0.006 | [10] -0.065

(further entries)

ATXN2L (UniProt Q8WWM7)
inactive: [1] -0.015 | volasertib -0.031 | [2] 0.021 | epoxomicin 0 | [3] -0.007 | [4] 0.021 | [5] -0.021 | rosiglitazone 0.007 | [6] 0.017 | [7] -0.029 | saracatinib 0.003 | sotrastaurin -0.041 | alvocidib -0.007 | Tubastatin A -0.005 | [8] 0.004 | defactinib -0.008 | rucaparib 0.048 | [9] 0.005 | encorafenib -0.001 | [10] 0

BCL2L2 isoform 2 (UniProt Q92843)
inactive: [1] 0.15 | volasertib 0.011 | [2] -0.03 | epoxomicin -0.105 | [3] -0.021 | [4] 0.131 | [5] -0.027 | rosiglitazone -0.036 | [6] 0.111 | [7] 0.133 | saracatinib 0.034 | sotrastaurin 0.023 | alvocidib 0.14 | Tubastatin A 0.04 | [8] 0.037 | defactinib 0.238 | rucaparib 0.1 | [9] -0.071 | encorafenib -0.034 | [10] -0.033
